Measured values: PubChem BioAssay AID602346 (Broad Institute, 2012)
Hit rate of the full screen: of about 340,000 compounds, about 1,200 (0.35%) were called active. This list was built around the results that the source calls inconclusive (neither active nor inactive); the mix of calls is not that of the screen. Cut-off read from the data, not from the text of the source: active = inhibition above about 50% (passing the limit was not always enough); inconclusive = no clear call, values can overlap the other calls; inactive = below about 31%.

Experiment: blockers of Vif multimerization in cells – imaging, HEK293T, single point, primary screen (AID 602346)
Conditions: Vif self-association by quenched fluorescence, 24 h, at 7.49 µM, stronger effect = higher value
In the case of `COc1ccc(N=Nc2ccc3ccccc3c2)c(O)c1`, the inhibition was inconclusive: 25.8%. With `C#CCOCCOCCOCCNc1nc(N2CCN(C(=O)CCCCCCCCCCNC(=O)[C@H](CCCCN)n3cc(C[C@@H](C)CC)nn3)CC2)nc(N2CCN(C(=O)CCCCCCCCCCNC(=O)[C@H](CCCN=C(N)N)n3cc(C[C@@H](C)CC)nn3)CC2)n1` the inhibition was inconclusive: 43.2%. For `O=C(CN1C(=O)C2C3C=CC(C4CC34)C2C1=O)Oc1ccccc1` (centres undefined), the inhibition was inactive: 2.42%. In the case of `CCOC(=O)c1ccc(NC(=O)CC2SC(=NC)N(C)C2=O)cc1` (centres undefined), the inhibition was inconclusive: 27.1%. With `Fc1ccccc1-c1cc2ccccc2cn1` the inhibition was inactive: -4.88%. In the case of `CCOc1ccc(OCCSc2nc(N)cc(=O)[nH]2)cc1`, the inhibition was inconclusive: 23%. For `CCCN1C(=O)c2ccccc2NC1c1ccc(OC)cc1OC` (centres undefined), the inhibition was inconclusive: 49.7%. For `NC(=O)Nc1ccc(C(=O)OCC(=O)Nc2cccc(S(=O)(=O)NC3=NCCC3)c2)cc1`, the inhibition was inconclusive: 29.2%. With `O=C(N/N=C/c1ccc([N+](=O)[O-])cc1)C(=O)N1CCCC1` the inhibition was inconclusive: 34.8%. With `COc1cc(/C=N/Nc2ccc(S(N)(=O)=O)cc2[N+](=O)[O-])cc(OC)c1O` the inhibition was inactive: 21.9%. In the case of `Cc1ccccc1N1C(=O)[C@@H]2Cc3ccccc3CN2C1=O`, the inhibition was inactive: 25%. In the case of `Cn1c(N)c(C(=O)CSc2nn(-c3ccc(F)cc3)c(=S)s2)c(=O)n(C)c1=O`, the inhibition was inactive: -3.82%. With `CC(=O)N1CCc2c(sc(NC(=O)c3ccc(S(=O)(=O)N(C)C)cc3)c2C#N)C1` the inhibition was inactive: 5.56%. With `Cc1cc(=O)[nH]c(SCC(=O)c2ccc(C)c(C)c2)n1` the inhibition was inconclusive: 19.5%. In the case of `Cc1ccc(N(CC(=O)NC2CCCCC2)S(=O)(=O)c2cccs2)cc1`, the inhibition was inconclusive: 42%. In the case of `O=C1C(=O)c2cccnc2-c2ncccc21`, the inhibition was active: 78%. For `COc1cc(/C=C(/C#N)C(=O)NCCCc2ccccc2)ccc1OCC(=O)O`, the inhibition was inconclusive: 22.2%. For `COc1ccc2c(c1)CCc1cnoc1-2`, the inhibition was inconclusive: 23.6%. For `COc1ccc2nc3ccccc3nc2c1NC(=O)c1ccc(Cl)cc1`, the inhibition was active: 106%. For `COc1ccc(C(=O)NCc2oc(-c3ccccc3)cc2C(=O)O)cc1`, the inhibition was active: 61%. For `CC(C)(C)c1ccc(OCC(=O)N/N=C/C2CC=CCC2)cc1` (centres undefined), the inhibition was inactive: 0.786%. With `CCN1CCc2c(sc(N)c2C(N)=O)C1` the inhibition was inconclusive: 45%. For `Cc1ccc(S(=O)(=O)N2CCOCC2)cc1NC(=O)COC(=O)c1ccc(OCc2c(C)noc2C)cc1`, the inhibition was inactive: 0.288%. In the case of `CCCCN1C[C@H](Cc2ccccc2)[C@@H](CC(=O)Nc2ccc(OC)cc2)C1=O`, the inhibition was inactive: -0.504%.
